For at least one compound, name, drawing or mass did not settle the structure.
Test system: Jurkat cells or PBMC adhering to cytochalasin D-retracted BAEC or BAEC-derived matrix
Test: Ligand-induced adhesion (LIA) of unstimulated lymphocytes to retracted EC or EC matrix
Type: cell-based, human
Experimental: Cells. Jurkat cells and Ramos B cells were obtained from the American Type Culture Collection (ATCC) and were cultured in RPMI (Mediatech, Herndon Va.) supplemented with glutaMAX-1 (Invitrogen, Carlsbad Calif.), 1 mM sodium pyruvate (BioWhittaker, Walkersville Md.), nonessential amino acids (NEAA) (BioWhittaker) and 10% fetal bovine serum (FBS) (Hyclone, Logan Utah). Peripheral blood was obtained from healthy donors with informed consent according to protocols approved by the Human Subjects Review Committee of the University of Washington. PBMC were isolated by Ficoll-Hypaque (Pharmacia, Piscataway, N.J.) gradient centrifugation and washed with PBS. HUVEC were isolated and cultured as previously described (Schwartz et al., J Immunol 162: 4842-8, 1999) and were grown in RPMI 1640 with supplemented with 2 mM glutamine, sodium pyruvate, NEAA, 10 mM HEPES, 100 U/ml penicillin, 100 U/ml streptomycin, 250 ng/ml fungizone (BioWhittaker), […] heparin (Sigma, St. Louis, Mo.), bovine hypothalamic extract (gift of E. Raines, University of Washington, Seattle, Wash.), and 10% bovine calf serum supplemented with iron (HyClone). HUVEC were cultured on surfaces coated with 2% gelatin (Sigma). […] Adhesion was measured by a Cytofluor Series 4000 fluorescence plate reader (PerSeptive Biosystems, Framingham, Mass.). […]

O=c1cc(N2CCOCC2)oc2c(-c3ccccc3)cccc12 [LY294002]
inhibition of LIA by inhibitors of other pathways: did not inhibit LIA
